PubChem BioAssay AID504764 | Drosophila RNAi Screening Center, 2011
The screen tested about 22,000 reagents; this is a random part of those that have a named target and a result. Of all reagents, 403 (1.9%) are marked active. 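Unnormalised raw counts per well; ratio z-scores behind the hit calls and whether each hit raises or lowers signal are not deposited.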 Names joined by + are all predicted targets of the reagent. Not given: the amount of reagent.

Test: 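Genome-wide screen for regulators of Notch-driven gene expression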 (primary screen)
System: Drosophila Kc167 cells
Reagent: long dsRNA against Drosophila genes
Time to read-out: about 5 days (4 days dsRNA, then 24 h after transfection)
Conditions: transfection of constitutively active membrane-tethered Notch lacking the extracellular domain, read 24 h later
Read-out: 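Firefly luciferase from an E(spl)m3 reporter with active Notch, plus control-promoter and uninduced reporter wells for normalisation; unnormalised counts, duplicate wells a and b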
Reading the numbers: induced reporter light, run 1, well a and induced reporter light, run 1, well b: higher = more light from the Notch target reporter with active Notch; control promoter light, run 1, well a and control promoter light, run 1, well b: higher = more light from the viral control promoter (cell number, transfection, viability); uninduced reporter light, run 1, well a: higher = more light from the Notch target reporter without active Notch
Hit rule: 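Hit if the duplicate-averaged log2 ratio of induced to control-promoter light gives a plate-wise z beyond ±2, or induced to uninduced beyond ±1.8; weak-control or discordant-duplicate wells dropped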
Meaning of the calls: active = modifier hit (raised or lowered Notch signal); inactive = not a hit

VhaM9.7-c (GeneID 38503) [DRSC08204] showed induced reporter light, run 1, well a = 1.18e5; induced reporter light, run 1, well b = 1.20e5; control promoter light, run 1, well a = 95325; control promoter light, run 1, well b = 33850; uninduced reporter light, run 1, well a = 9900; inactive. With knock-down of CG12111 (GeneID 31796) [DRSC17808], the record shows induced reporter light, run 1, well a = 1.39e5; induced reporter light, run 1, well b = 1.43e5; control promoter light, run 1, well a = 2.31e5; control promoter light, run 1, well b = 2.41e5; uninduced reporter light, run 1, well a = 9355; inactive. After knock-down of Galphaf (GeneID 39861) [DRSC11171], the record shows induced reporter light, run 1, well a = 1.92e5; induced reporter light, run 1, well b = 1.93e5; control promoter light, run 1, well a = 2.11e5; control promoter light, run 1, well b = 2.37e5; uninduced reporter light, run 1, well a = 10240; inactive. CG7945 + yellow-k [DRSC10851] gave induced reporter light, run 1, well a = 1.85e5; induced reporter light, run 1, well b = 1.91e5; control promoter light, run 1, well a = 2.10e5; control promoter light, run 1, well b = 1.66e5; uninduced reporter light, run 1, well a = 11070; inactive. For Taf5 (GeneID 47900) [DRSC07562] the deposit lists induced reporter light, run 1, well a = 87860; induced reporter light, run 1, well b = 92505; control promoter light, run 1, well a = 98395; control promoter light, run 1, well b = 91885; uninduced reporter light, run 1, well a = 5950; inactive. CG13587 (GeneID 37930) [DRSC04223] scored induced reporter light, run 1, well a = 1.16e5; induced reporter light, run 1, well b = 1.30e5; control promoter light, run 1, well a = 1.19e5; control promoter light, run 1, well b = 1.08e5; uninduced reporter light, run 1, well a = 8305; inactive.

CycY (GeneID 34593) [DRSC02420] gave induced reporter light, run 1, well a = 2.20e5; induced reporter light, run 1, well b = 2.10e5; control promoter light, run 1, well a = 1.67e5; control promoter light, run 1, well b = 1.67e5; uninduced reporter light, run 1, well a = 17010; inactive. After knock-down of CG10631 (GeneID 35262) [DRSC02081] the results were induced reporter light, run 1, well a = 1.71e5; induced reporter light, run 1, well b = 1.85e5; control promoter light, run 1, well a = 1.26e5; control promoter light, run 1, well b = 1.24e5; uninduced reporter light, run 1, well a = 11985; inactive. Knock-down of Spase22-23 (GeneID 42885) [DRSC15857] resulted in: induced reporter light, run 1, well a = 1.34e5; induced reporter light, run 1, well b = 1.35e5; control promoter light, run 1, well a = 1.51e5; control promoter light, run 1, well b = 1.65e5; uninduced reporter light, run 1, well a = 11870; inactive. CG13130 (retired record) (GeneID 50439) [DRSC02226] scored induced reporter light, run 1, well a = 75460; induced reporter light, run 1, well b = 1.11e5; control promoter light, run 1, well a = 69530; control promoter light, run 1, well b = 75125; uninduced reporter light, run 1, well a = 14170; inactive. Herc4 (GeneID 38151) [DRSC08631] showed induced reporter light, run 1, well a = 1.46e5; induced reporter light, run 1, well b = 2.28e5; control promoter light, run 1, well a = 2.74e5; control promoter light, run 1, well b = 2.99e5; uninduced reporter light, run 1, well a = 10170; inactive. With knock-down of CG34032 (retired record) (GeneID 3885630) [DRSC09225], the screen gave induced reporter light, run 1, well a = 2.30e5; induced reporter light, run 1, well b = 2.63e5; control promoter light, run 1, well a = 2.41e5; control promoter light, run 1, well b = 2.53e5; uninduced reporter light, run 1, well a = 21692; inactive.

Depletion of CG15554 (GeneID 43680) [DRSC15092] came out at: induced reporter light, run 1, well a = 1.28e5; induced reporter light, run 1, well b = 94695; control promoter light, run 1, well a = 1.35e5; control promoter light, run 1, well b = 1.32e5; uninduced reporter light, run 1, well a = 7725; inactive. After knock-down of Cyp4ad1 (GeneID 35821) [DRSC07369], the screen gave induced reporter light, run 1, well a = 1.98e5; induced reporter light, run 1, well b = 1.69e5; control promoter light, run 1, well a = 1.80e5; control promoter light, run 1, well b = 1.77e5; uninduced reporter light, run 1, well a = 18400; inactive. For ArgRS (GeneID 32539) [DRSC20138], the values are induced reporter light, run 1, well a = 16130; induced reporter light, run 1, well b = 11600; control promoter light, run 1, well a = 25525; control promoter light, run 1, well b = 15625; uninduced reporter light, run 1, well a = 2260; inactive. For CG13126 (GeneID 34323) [DRSC02222], the entry reads induced reporter light, run 1, well a = 1.79e5; induced reporter light, run 1, well b = 2.19e5; control promoter light, run 1, well a = 87870; control promoter light, run 1, well b = 1.33e5; uninduced reporter light, run 1, well a = 21545; inactive. ago (GeneID 38516) [DRSC08463] scored induced reporter light, run 1, well a = 1.27e5; induced reporter light, run 1, well b = 1.36e5; control promoter light, run 1, well a = 1.09e5; control promoter light, run 1, well b = 58015; uninduced reporter light, run 1, well a = 13625; inactive. With knock-down of CG6793 (GeneID 39369) [DRSC10714], the record shows induced reporter light, run 1, well a = 1.13e5; induced reporter light, run 1, well b = 1.03e5; control promoter light, run 1, well a = 1.48e5; control promoter light, run 1, well b = 1.41e5; uninduced reporter light, run 1, well a = 8580; inactive.
